PubChem BioAssay AID493246 | Drosophila RNAi Screening Center, 2011
Test: 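Genome-wide search for dsRNAs that reduce cell number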 (primary screen). Cells: Drosophila Kc and S2R+ cells. Reagents: long dsRNA against Drosophila genes. Detection: 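Cell number per well after knock-down, printed as raw plate values; calls were based on per-plate z-scores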. Scale: Kc cell number and S2R+ cell number: higher = more cells remaining. Active means: 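Counted as a hit if cell number falls by a z-score of at least 3 within its plate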.
The screen tested about 21,000 reagents; shown is an unselected part of those with a known target gene and a result. Of all reagents, 429 (2%) were called active. 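Values are raw and not normalised between plates; calls rest on per-plate z-scores that were not deposited.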 The numbers tell different reagents against one gene apart. No sequences are given here. Not stated in the record: the amount of reagent, the time to read-out.

How did the screen score l(2)k09022?
Kc cell number, rep 1: 1.23e6; Kc cell number, rep 2: 1.41e6; S2R+ cell number, rep 1: 5.73e5; S2R+ cell number, rep 2: 7.51e5; Call: inactive

For CG33288, what does the deposit list?
Kc cell number, rep 1: 1.67e6; Kc cell number, rep 2: 1.75e6; S2R+ cell number, rep 1: 1.15e6; S2R+ cell number, rep 2: 1.38e6; Call: inactive

What is on record for CG4558?
Kc cell number, rep 1: 5.79e5; S2R+ cell number, rep 1: 9.11e5; Call: inactive

What did the screen give for garz?
Kc cell number, rep 1: 1.56e6; Kc cell number, rep 2: 1.48e6; S2R+ cell number, rep 1: 1.12e6; S2R+ cell number, rep 2: 1.21e6; Call: inactive

How did the screen score Uros2?
Kc cell number, rep 1: 1.48e6; Kc cell number, rep 2: 1.47e6; S2R+ cell number, rep 1: 1.03e6; S2R+ cell number, rep 2: 1.17e6; Call: inactive

For Polr3C, what does the deposit list?
Kc cell number, rep 1: 1.56e6; Kc cell number, rep 2: 1.66e6; S2R+ cell number, rep 1: 1.27e6; S2R+ cell number, rep 2: 1.42e6; Call: inactive

With Vps15, how do the results read?
Kc cell number, rep 1: 1.53e6; Kc cell number, rep 2: 1.55e6; S2R+ cell number, rep 1: 1.10e6; S2R+ cell number, rep 2: 1.14e6; Call: inactive

Which result is listed for Mabi?
Kc cell number, rep 1: 1.66e6; Kc cell number, rep 2: 1.69e6; S2R+ cell number, rep 1: 1.40e6; S2R+ cell number, rep 2: 1.51e6; Call: inactive

For CG13384, what was measured?
Kc cell number, rep 1: 1.08e6; Kc cell number, rep 2: 1.44e6; S2R+ cell number, rep 1: 4.13e5; S2R+ cell number, rep 2: 3.27e5; Call: inactive

What did the screen give for Sar1?
Kc cell number, rep 1: 1.81e6; Kc cell number, rep 2: 1.80e6; S2R+ cell number, rep 1: 1.23e6; S2R+ cell number, rep 2: 1.30e6; Call: inactive

For CG32576, what was measured?
Kc cell number, rep 1: 1.43e6; Kc cell number, rep 2: 1.72e6; S2R+ cell number, rep 1: 1.05e6; S2R+ cell number, rep 2: 1.18e6; Call: inactive

With CG3557, what does the deposit list?
Kc cell number, rep 1: 1.38e6; Kc cell number, rep 2: 1.37e6; S2R+ cell number, rep 1: 1.05e6; S2R+ cell number, rep 2: 1.00e6; Call: inactive

How did the screen score GATAe?
Kc cell number, rep 1: 1.48e6; Kc cell number, rep 2: 1.65e6; S2R+ cell number, rep 1: 1.04e6; S2R+ cell number, rep 2: 1.11e6; Call: inactive

Which result is listed for CG9406?
Kc cell number, rep 1: 1.52e6; Kc cell number, rep 2: 1.82e6; S2R+ cell number, rep 1: 1.44e6; S2R+ cell number, rep 2: 4.86e5; Call: inactive

For ND-B8, what does the deposit list?
Kc cell number, rep 1: 1.52e6; Kc cell number, rep 2: 1.49e6; S2R+ cell number, rep 1: 1.19e6; S2R+ cell number, rep 2: 1.29e6; Call: inactive

Which result is listed for Snrk?
Kc cell number, rep 1: 1.34e6; Kc cell number, rep 2: 1.47e6; S2R+ cell number, rep 1: 1.08e6; S2R+ cell number, rep 2: 1.17e6; Call: inactive

What did the screen give for mus302?
Kc cell number, rep 1: 1.31e6; Kc cell number, rep 2: 1.47e6; S2R+ cell number, rep 1: 1.24e6; S2R+ cell number, rep 2: 1.36e6; Call: inactive

With CG31562 (retired record) #1, how do the results read?
Kc cell number, rep 1: 1.65e6; Kc cell number, rep 2: 2.01e6; S2R+ cell number, rep 1: 1.24e6; S2R+ cell number, rep 2: 1.38e6; Call: inactive

Which result is listed for CG31562 (retired record) #2?
Kc cell number, rep 1: 1.65e6; Kc cell number, rep 2: 1.84e6; S2R+ cell number, rep 1: 1.23e6; S2R+ cell number, rep 2: 1.39e6; Call: inactive

What is on record for CG34241?
Kc cell number, rep 1: 1.45e6; Kc cell number, rep 2: 1.53e6; S2R+ cell number, rep 1: 1.16e6; S2R+ cell number, rep 2: 1.30e6; Call: inactive

What did the screen give for CG3511?
Kc cell number, rep 1: 1.51e6; Kc cell number, rep 2: 1.63e6; S2R+ cell number, rep 1: 1.13e6; S2R+ cell number, rep 2: 1.12e6; Call: inactive

2 entries already listed, ordered by “Kc cell number, rep 1”, high to low:
CG31562 (retired record) #1 — Kc cell number, rep 1: 1.65e6; Kc cell number, rep 2: 2.01e6; S2R+ cell number, rep 1: 1.24e6; S2R+ cell number, rep 2: 1.38e6; Call: inactive
mus302 — Kc cell number, rep 1: 1.31e6; Kc cell number, rep 2: 1.47e6; S2R+ cell number, rep 1: 1.24e6; S2R+ cell number, rep 2: 1.36e6; Call: inactive
